Here are results for three compounds from patent publication US6359168B1, “Compounds derived from menthol and use as refreshing agent” (Firmenich SA, priority 1998, dated 2002).

In one data set the test system is buccal mucosae. Nature of the data set: Taste and cooling effect of the compound when tasted. Format: in vivo, human.
The test system of another data set is expert flavourists. The data set can be described thus: Grapefruit-flavoured sweets compared by expert flavourists under blind conditions. The settings on record: 0.05% in grapefruit-flavoured sweets. Type of data set: in vivo, human. The procedure: Grapefruit-flavoured sweets were prepared from boiled sugar, 1% citric acid, and 0.05% of a grapefruit flavouring of the following formula: Under blind conditions, expert flavourists then compared these sweets, without any additives, with sweets of the same composition to which certain compounds according to the invention had been added.

With `CC(C)[C@@H]1CC[C@@H](C)C[C@H]1OC(=O)COCCOCCOCCO` [(1R,2S,5R)-menthyl 11-hydroxy-3,6,9-trioxaundecanoate], the taste result in the data set on buccal mucosae is on record as “slightly bitter, mentholated taste”.
On to `COCC(=O)O[C@@H]1C[C@H](C)CC[C@H]1C(C)C` [(1R,2S,5R)-3-menthyl methoxyacetate, (1R,2S,5R)-3-methyl methoxyacetate], for which the “taste / organoleptic profile” value in the data set with expert flavourists is on record as “does not modify the organoleptic profile of the base composition”. Also, the taste entry in the data set with buccal mucosae is “head note fruity taste resembling that of menthyl acetate”.
Regarding `COCCOCC(=O)O[C@@H]1C[C@H](C)CC[C@H]1C(C)C` [(1R,2S,5R)-3-menthyl 3,6-dioxaheptanoate], the “taste / organoleptic profile” value in the data set with expert flavourists was “a bitterness which reinforced the natural bitterness of the grapefruit essence”. The taste result with buccal mucosae is given as “bitter taste”.
